Experiment: general procedure: Boc solid-phase peptide synthesis; Boc Thr(OBzl) Pam resin; methoxybenzhydrylamine / 4-methylbenzhydrylamine (MBHA) resin; HBTU (FastBoc single coupling); DEPBT for lactam peptides; PyBOP for on-resin la
Details: conjugation step
[1] = analytical RP-HPLC, Zorbax C8, 214 nm, MALDI or ESI MS

Substance	final HPLC purity (214 nm)	difficulty met	final HPLC purity [1]
Glucagon Cys^17 Mal-PEG-5K	approx. 90%		
Glucagon Cys^24 Mal-PEG-20K		The product ratio had not significantly improved	˜90%
Glucagon Cys^29 Mal-PEG-5K			greater than 95%
